Experimental data from patent publication US20050287643A1 (YALE UNIVERSITY, published 2005).
Results are given in words; binding and its absence hold for the method and conditions named. Some entries that bind do so weakly or less than the wild type.

Sequences of proteins named here, by UniProt entry; tags and fusion partners are left off. A change or cut given only in a name is not applied to a line headed by its entry. Residues count along the entry.
UniProt Q03173, residues 1-112: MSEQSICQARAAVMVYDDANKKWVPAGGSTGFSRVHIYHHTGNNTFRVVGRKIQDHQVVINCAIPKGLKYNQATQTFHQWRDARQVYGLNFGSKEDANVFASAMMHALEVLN
UniProt P33379: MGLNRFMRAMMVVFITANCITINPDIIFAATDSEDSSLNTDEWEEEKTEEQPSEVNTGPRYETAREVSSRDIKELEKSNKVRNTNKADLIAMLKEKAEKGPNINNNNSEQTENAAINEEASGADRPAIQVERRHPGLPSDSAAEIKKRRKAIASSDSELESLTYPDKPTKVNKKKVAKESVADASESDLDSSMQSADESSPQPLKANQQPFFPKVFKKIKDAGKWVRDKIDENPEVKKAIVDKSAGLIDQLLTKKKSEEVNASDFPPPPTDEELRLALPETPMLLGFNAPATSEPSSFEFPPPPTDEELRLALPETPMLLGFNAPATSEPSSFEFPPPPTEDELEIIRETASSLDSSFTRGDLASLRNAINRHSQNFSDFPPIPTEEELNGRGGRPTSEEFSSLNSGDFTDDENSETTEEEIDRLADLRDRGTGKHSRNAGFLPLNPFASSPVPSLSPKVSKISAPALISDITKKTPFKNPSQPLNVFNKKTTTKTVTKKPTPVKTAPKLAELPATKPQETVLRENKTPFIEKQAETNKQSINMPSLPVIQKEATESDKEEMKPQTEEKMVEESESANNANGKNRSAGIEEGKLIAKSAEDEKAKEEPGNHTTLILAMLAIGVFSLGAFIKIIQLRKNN

Target: Mena1-112 EVH1 domain (UniProt Q03173)
Assay: tryptophan fluorescence perturbation

ActA11 (from UniProt P33379 298-308) (peptide)
binding: binds
